This passage reports log2 fold change results from the supplement of paper PMC10849652.

Chains of the proteins cited; added tags and fusions are not shown. Lines headed by an entry give the natural chain unless they say otherwise; changes in a name come on top.
UniProt Q9P2W9: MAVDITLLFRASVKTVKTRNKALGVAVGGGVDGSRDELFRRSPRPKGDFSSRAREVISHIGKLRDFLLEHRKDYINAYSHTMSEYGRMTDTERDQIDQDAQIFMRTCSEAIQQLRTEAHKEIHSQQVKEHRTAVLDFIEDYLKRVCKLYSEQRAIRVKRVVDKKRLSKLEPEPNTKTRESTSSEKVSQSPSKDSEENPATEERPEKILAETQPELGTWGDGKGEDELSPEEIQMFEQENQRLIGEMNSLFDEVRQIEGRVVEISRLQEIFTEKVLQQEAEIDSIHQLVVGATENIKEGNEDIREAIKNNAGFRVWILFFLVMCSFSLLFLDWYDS
UniProt Q92844: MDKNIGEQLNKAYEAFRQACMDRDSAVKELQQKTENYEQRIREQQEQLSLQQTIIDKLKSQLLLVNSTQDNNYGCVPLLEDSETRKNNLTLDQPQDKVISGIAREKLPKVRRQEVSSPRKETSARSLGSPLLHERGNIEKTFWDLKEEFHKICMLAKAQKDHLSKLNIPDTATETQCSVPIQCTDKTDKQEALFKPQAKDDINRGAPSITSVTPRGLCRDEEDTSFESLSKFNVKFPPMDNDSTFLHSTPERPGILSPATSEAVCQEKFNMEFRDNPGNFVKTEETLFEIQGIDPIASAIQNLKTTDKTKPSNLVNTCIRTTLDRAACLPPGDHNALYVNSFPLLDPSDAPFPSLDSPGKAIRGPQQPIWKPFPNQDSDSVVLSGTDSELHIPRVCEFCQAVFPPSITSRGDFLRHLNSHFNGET
UniProt Q12846: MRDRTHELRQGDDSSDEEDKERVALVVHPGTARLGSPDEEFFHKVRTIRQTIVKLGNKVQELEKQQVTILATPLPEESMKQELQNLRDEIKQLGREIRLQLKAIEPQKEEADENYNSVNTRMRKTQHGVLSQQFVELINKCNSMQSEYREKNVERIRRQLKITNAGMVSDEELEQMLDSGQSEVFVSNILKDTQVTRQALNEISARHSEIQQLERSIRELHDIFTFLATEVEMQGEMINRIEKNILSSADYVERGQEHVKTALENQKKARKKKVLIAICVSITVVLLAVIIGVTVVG
UniProt Q4KMP7: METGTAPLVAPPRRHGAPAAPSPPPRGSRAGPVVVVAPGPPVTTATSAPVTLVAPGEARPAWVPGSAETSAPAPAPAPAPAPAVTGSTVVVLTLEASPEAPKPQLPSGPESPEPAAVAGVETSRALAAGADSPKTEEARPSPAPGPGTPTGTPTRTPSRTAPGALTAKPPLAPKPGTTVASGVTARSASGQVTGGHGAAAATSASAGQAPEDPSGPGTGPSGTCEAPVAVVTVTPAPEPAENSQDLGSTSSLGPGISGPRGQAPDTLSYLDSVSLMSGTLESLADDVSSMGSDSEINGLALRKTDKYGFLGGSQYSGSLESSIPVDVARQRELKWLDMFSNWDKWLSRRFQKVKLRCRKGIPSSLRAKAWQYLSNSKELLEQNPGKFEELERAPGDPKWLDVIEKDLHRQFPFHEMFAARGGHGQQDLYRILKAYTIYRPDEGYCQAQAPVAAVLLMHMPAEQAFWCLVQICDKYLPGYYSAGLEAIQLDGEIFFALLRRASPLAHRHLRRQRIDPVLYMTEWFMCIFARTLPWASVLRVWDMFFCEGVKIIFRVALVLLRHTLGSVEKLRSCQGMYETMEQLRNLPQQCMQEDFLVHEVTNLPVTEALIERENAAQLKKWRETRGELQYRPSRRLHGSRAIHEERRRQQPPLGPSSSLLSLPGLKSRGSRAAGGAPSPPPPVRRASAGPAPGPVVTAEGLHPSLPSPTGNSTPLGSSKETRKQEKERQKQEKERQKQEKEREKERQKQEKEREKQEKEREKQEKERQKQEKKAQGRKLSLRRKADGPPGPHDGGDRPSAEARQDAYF
UniProt Q7RTN6: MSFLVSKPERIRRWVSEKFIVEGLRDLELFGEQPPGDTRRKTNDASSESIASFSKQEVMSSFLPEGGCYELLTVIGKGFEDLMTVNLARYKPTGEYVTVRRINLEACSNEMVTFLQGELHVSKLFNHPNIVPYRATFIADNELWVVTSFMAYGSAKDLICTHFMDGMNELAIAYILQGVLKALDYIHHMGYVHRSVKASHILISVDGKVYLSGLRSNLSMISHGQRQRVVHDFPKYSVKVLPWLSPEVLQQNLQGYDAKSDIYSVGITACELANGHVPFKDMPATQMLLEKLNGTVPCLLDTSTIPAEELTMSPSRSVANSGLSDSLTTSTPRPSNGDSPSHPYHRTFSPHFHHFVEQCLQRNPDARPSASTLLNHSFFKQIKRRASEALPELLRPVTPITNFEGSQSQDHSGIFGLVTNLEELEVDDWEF
UniProt Q15833: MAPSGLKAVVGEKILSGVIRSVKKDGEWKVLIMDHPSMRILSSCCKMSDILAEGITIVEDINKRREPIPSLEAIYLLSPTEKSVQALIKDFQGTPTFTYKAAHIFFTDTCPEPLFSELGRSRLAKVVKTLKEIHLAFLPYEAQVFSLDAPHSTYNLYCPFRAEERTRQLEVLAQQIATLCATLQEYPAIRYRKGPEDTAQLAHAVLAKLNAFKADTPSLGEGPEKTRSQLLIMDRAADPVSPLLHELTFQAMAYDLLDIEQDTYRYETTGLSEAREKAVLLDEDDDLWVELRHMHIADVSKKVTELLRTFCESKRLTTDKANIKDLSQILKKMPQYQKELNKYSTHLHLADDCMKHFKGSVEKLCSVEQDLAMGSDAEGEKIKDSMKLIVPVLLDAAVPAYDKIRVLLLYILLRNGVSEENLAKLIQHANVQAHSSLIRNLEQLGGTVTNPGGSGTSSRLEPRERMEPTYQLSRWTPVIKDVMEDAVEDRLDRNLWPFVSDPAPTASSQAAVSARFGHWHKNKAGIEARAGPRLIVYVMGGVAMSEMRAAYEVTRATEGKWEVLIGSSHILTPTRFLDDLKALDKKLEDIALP
UniProt P50225: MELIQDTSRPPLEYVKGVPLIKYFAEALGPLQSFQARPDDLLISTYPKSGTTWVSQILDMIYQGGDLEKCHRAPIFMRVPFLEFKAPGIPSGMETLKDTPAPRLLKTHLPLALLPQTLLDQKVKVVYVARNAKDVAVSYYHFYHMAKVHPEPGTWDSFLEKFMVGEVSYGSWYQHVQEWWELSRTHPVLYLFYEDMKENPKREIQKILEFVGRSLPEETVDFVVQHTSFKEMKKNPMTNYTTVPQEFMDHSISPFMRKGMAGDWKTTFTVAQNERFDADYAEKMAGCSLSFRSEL
UniProt O60506: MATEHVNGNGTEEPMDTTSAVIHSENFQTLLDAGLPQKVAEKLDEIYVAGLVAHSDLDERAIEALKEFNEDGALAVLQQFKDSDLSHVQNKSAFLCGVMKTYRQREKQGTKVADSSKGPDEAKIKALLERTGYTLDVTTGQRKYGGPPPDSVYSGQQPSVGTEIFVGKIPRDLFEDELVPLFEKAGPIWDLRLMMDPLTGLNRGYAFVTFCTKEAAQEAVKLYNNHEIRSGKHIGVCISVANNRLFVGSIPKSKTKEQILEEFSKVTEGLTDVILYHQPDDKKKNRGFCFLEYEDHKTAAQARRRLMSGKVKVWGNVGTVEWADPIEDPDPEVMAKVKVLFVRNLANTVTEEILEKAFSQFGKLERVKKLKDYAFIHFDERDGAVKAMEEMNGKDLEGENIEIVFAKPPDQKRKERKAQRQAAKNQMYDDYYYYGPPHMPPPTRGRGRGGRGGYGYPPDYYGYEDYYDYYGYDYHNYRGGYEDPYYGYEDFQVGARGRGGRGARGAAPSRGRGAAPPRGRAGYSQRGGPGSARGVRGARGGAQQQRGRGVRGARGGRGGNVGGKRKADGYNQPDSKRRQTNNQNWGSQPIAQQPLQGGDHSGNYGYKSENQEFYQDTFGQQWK
UniProt Q15633: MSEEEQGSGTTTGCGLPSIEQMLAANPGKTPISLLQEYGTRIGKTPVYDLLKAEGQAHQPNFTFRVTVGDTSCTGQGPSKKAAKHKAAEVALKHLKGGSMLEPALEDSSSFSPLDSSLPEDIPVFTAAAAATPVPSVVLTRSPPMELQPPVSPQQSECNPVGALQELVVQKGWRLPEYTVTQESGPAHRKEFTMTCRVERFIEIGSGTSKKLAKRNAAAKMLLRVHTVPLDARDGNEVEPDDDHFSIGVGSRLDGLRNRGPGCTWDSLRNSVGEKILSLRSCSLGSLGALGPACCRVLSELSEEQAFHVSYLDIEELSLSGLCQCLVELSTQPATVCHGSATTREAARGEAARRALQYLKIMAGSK
UniProt Q15527: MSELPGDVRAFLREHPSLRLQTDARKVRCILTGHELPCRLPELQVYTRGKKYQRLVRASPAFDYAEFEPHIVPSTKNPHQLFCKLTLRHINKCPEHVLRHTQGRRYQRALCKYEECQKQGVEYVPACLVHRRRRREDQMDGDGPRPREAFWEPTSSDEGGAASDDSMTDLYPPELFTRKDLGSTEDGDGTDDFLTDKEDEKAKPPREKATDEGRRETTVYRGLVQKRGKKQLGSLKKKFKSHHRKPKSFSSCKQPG
UniProt O75410: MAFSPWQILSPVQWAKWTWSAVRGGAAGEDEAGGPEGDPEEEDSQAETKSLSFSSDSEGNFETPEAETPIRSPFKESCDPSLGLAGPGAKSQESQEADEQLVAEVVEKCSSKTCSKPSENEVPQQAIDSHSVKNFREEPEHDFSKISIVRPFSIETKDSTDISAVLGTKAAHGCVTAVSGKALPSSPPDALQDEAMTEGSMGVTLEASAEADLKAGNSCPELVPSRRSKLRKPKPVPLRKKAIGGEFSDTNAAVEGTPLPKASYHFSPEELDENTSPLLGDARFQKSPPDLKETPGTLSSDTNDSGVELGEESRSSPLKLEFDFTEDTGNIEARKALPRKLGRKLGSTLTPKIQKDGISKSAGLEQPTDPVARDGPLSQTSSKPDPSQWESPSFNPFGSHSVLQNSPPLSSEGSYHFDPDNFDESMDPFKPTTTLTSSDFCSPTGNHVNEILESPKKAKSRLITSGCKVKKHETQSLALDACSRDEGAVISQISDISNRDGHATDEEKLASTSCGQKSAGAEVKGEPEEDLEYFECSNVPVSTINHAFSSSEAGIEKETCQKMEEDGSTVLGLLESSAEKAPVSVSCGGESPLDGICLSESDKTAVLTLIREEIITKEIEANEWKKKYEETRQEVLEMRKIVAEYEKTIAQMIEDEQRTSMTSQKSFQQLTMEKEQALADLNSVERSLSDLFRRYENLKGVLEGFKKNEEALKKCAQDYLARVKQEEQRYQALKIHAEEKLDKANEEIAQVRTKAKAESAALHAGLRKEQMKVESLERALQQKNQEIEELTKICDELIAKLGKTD
UniProt O94901, whole entry, looked up: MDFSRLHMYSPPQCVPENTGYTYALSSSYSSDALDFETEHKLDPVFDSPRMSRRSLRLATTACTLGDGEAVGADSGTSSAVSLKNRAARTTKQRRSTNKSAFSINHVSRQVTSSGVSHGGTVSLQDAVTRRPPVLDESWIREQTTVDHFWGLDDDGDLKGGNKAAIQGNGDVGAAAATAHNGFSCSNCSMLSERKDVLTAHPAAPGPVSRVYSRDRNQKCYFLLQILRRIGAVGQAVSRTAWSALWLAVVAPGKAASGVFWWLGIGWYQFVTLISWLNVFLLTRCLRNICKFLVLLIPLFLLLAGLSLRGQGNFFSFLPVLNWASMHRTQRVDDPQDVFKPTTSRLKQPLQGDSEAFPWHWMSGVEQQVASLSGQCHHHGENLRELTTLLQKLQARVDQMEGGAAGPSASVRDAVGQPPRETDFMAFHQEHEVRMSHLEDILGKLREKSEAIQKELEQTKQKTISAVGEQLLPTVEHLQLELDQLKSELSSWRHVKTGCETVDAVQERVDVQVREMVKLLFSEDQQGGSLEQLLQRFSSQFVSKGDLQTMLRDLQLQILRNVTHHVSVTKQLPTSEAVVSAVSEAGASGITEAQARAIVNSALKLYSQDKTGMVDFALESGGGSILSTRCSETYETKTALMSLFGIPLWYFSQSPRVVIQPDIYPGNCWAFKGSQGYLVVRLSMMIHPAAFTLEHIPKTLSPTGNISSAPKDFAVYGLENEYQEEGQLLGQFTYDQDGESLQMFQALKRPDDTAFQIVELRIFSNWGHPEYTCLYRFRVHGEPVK
UniProt P37802: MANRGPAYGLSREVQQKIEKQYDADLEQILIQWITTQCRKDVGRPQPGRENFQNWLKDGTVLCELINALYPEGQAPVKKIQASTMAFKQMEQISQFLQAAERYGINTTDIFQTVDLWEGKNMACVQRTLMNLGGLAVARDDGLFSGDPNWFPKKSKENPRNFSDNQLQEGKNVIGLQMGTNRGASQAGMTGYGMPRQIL
UniProt P0DMM9: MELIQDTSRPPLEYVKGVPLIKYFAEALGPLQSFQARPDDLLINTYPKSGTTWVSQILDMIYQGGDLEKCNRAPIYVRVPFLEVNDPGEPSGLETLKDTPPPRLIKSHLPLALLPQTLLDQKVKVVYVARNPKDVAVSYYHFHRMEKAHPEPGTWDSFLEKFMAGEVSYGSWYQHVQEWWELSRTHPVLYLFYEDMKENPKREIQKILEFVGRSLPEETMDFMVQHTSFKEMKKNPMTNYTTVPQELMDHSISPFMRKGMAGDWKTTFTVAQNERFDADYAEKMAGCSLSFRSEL

The other results are listed elsewhere or left out.

Compound in one assay: CS(=O)(=O)CCNCc1ccc(-c2ccc3ncnc(Nc4ccc(OCc5cccc(F)c5)c(Cl)c4)c3c2)o1 [lapatinib]
As to the kind of experiment: log2 fold change, soluble protein after heating vs DMSO (PISA); higher = thermal stabilisation; K562 cells, 10 uM, 30 min; active = over 0.2 and 3.5 SD of the protein, either way, in both replicates (recomputed). The method in brief: (§1)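 Soluble protein was defined as the supernatant after 21,000xg for 90 min. It came from K562 cells at 2×10^6 cells/mL given 10 μM compound for 30 min, heated in aliquots for 3 min across 48°C-58°C, pooled, and extracted in PBS with 0.5% NP-40 at 4°C, and was quantified by TMTpro 16plex LC-MS/MS with equalised channel sums. Thermal stability against control samples, from duplicates, is reported as log2 fold change.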
On to STX18 (UniProt Q9P2W9), for which the log2 fold change is inactive: -0.029.

On to SYMPK (UniProt Q92797), for which the log2 fold change was inactive: -0.045.

SURF1 (UniProt Q15526): the log2 fold change was inactive: 0.058.

Regarding TANK (UniProt Q92844), the log2 fold change is inactive: -0.015.

Consider TAOK1 (UniProt Q7L7X3), for which the log2 fold change was inactive: 0.014.

For the target STRIP1 (UniProt Q5VSL9), the log2 fold change was inactive: 0.09.

Regarding STX4 (UniProt Q12846), the log2 fold change was inactive: 0.05.

As for TBC1D10B (UniProt Q4KMP7), the log2 fold change is inactive: 0.041.

In the case of STRADA (UniProt Q7RTN6), the log2 fold change is inactive: 0.026.

As to STX5 (UniProt Q13190), the log2 fold change is inactive: 0.126.

Take STXBP2 isoform 3 (UniProt Q15833): the log2 fold change was inactive: 0.007.

Consider SULT1A1 (UniProt P50225), for which the log2 fold change was inactive: 0.026.

As to SUGP1 (UniProt Q8IWZ8), the log2 fold change was inactive: -0.046.

On to TBC1D13 (UniProt Q9NVG8), for which the log2 fold change was inactive: -0.015.

As to STOM (UniProt P27105), the log2 fold change was inactive: 0.067.

Turning to SYNCRIP (UniProt O60506), the log2 fold change was inactive: 0.053.

Regarding TANGO2 isoform 4 (UniProt Q6ICL3), the log2 fold change is inactive: 0.002.

STX6 (UniProt O43752): the log2 fold change was inactive: -0.01.

As for TAOK3 (UniProt Q9H2K8), the log2 fold change was inactive: 0.061.

Take TARBP2 (UniProt Q15633): the log2 fold change is inactive: -0.078.

Turning to TACO1 (UniProt Q9BSH4), the log2 fold change is inactive: -0.112.

Regarding SURF2 (UniProt Q15527), the log2 fold change was inactive: 0.006.

With SYNCRIP isoform 3 (UniProt O60506), the log2 fold change was inactive: 0.03.

In the case of SUPT4H1 (UniProt P63272), the log2 fold change was inactive: 0.

Take TATDN3 isoform 3 (UniProt Q17R31): the log2 fold change was inactive: -0.081.

TACC1 isoform 2 (UniProt O75410): the log2 fold change was inactive: -0.019.

Turning to TAX1BP1 (UniProt Q86VP1), the log2 fold change was inactive: -0.012.

Take STMN3 (UniProt Q9NZ72): the log2 fold change was inactive: 0.

In the case of TAF8 isoform 2 (UniProt Q7Z7C8), the log2 fold change was inactive: 0.056.

In the case of TARSL2 (UniProt A2RTX5), the log2 fold change was inactive: -0.017.

Turning to STRN (UniProt O43815), the log2 fold change is inactive: 0.015.

In the case of SUN1 isoform 9 (UniProt O94901), the log2 fold change was inactive: 0.052.

On to STK38 (UniProt Q15208), for which the log2 fold change was inactive: -0.001.

As for STOML2 (UniProt Q9UJZ1), the log2 fold change is inactive: -0.014.

In the case of TAGLN2 isoform 2 (UniProt P37802), the log2 fold change was inactive: 0.028.

In the case of STX12 (UniProt Q86Y82), the log2 fold change is inactive: -0.001.

On to SYNE2 isoform 2 (UniProt Q8WXH0), for which the log2 fold change was inactive: -0.133.

On to SULT1A3 isoform 3 (UniProt P0DMM9), for which the log2 fold change was inactive: -0.06.

Compound in another assay: CS(=O)(=O)N1CCN(Cc2cc3nc(-c4cccc5[nH]ncc45)nc(N4CCOCC4)c3s2)CC1 [pictilisib]
The description is as above. The method in brief: as §1
Consider STX18 (UniProt Q9P2W9), for which the log2 fold change was inactive: 0.099.

SYMPK (UniProt Q92797): the log2 fold change was inactive: 0.155.

As to SURF1 (UniProt Q15526), the log2 fold change was inactive: 0.051.

TANK (UniProt Q92844): the log2 fold change is inactive: 0.027.

As for TAOK1 (UniProt Q7L7X3), the log2 fold change is inactive: -0.043.

STRIP1 (UniProt Q5VSL9): the log2 fold change is inactive: 0.021.

STX4 (UniProt Q12846): the log2 fold change is inactive: 0.041.

As to TBC1D10B (UniProt Q4KMP7), the log2 fold change was inactive: -0.002.

Take STRADA (UniProt Q7RTN6): the log2 fold change is inactive: -0.059.

As for STX5 (UniProt Q13190), the log2 fold change is inactive: 0.033.

On to STXBP2 isoform 3 (UniProt Q15833), for which the log2 fold change was inactive: -0.091.

Turning to SULT1A1 (UniProt P50225), the log2 fold change is inactive: 0.138.

Turning to SUGP1 (UniProt Q8IWZ8), the log2 fold change was inactive: 0.032.

As for TBC1D13 (UniProt Q9NVG8), the log2 fold change was inactive: 0.079.

As for STOM (UniProt P27105), the log2 fold change is inactive: -0.022.

Regarding SYNCRIP (UniProt O60506), the log2 fold change is inactive: -0.053.

In the case of TANGO2 isoform 4 (UniProt Q6ICL3), the log2 fold change was inactive: 0.057.

With STX6 (UniProt O43752), the log2 fold change is inactive: 0.008.

As for TAOK3 (UniProt Q9H2K8), the log2 fold change is inactive: -0.001.

As to TARBP2 (UniProt Q15633), the log2 fold change was inactive: 0.008.

TACO1 (UniProt Q9BSH4): the log2 fold change was inactive: 0.063.

Turning to SURF2 (UniProt Q15527), the log2 fold change was inactive: -0.07.

With SYNCRIP isoform 3 (UniProt O60506), the log2 fold change is inactive: -0.232.

On to SUPT4H1 (UniProt P63272), for which the log2 fold change was inactive: 0.142.

Regarding TATDN3 isoform 3 (UniProt Q17R31), the log2 fold change is inactive: 0.104.

In the case of TACC1 isoform 2 (UniProt O75410), the log2 fold change was inactive: 0.03.

TAX1BP1 (UniProt Q86VP1): the log2 fold change is inactive: 0.044.

Regarding STMN3 (UniProt Q9NZ72), the log2 fold change was inactive: 0.108.

On to TAF8 isoform 2 (UniProt Q7Z7C8), for which the log2 fold change is inactive: -0.018.

Turning to TARSL2 (UniProt A2RTX5), the log2 fold change is inactive: 0.021.

For the target STRN (UniProt O43815), the log2 fold change was inactive: 0.006.

SUN1 isoform 9 (UniProt O94901): the log2 fold change was inactive: -0.002.

As to STK38 (UniProt Q15208), the log2 fold change was inactive: 0.146.

For STOML2 (UniProt Q9UJZ1), the log2 fold change is inactive: -0.076.

Turning to TAGLN2 isoform 2 (UniProt P37802), the log2 fold change is inactive: 0.003.

As for STX12 (UniProt Q86Y82), the log2 fold change is inactive: 0.074.

As to SYNE2 isoform 2 (UniProt Q8WXH0), the log2 fold change was inactive: 0.205.

Regarding SULT1A3 isoform 3 (UniProt P0DMM9), the log2 fold change is inactive: -0.124.
